Test results reported in the supplement of paper PMC4604168 (melanoma cell lines).
The other results are listed elsewhere or left out. Many values rest on one well or one pass, so single values are uncertain.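 Cells were imaged in 1,536-well plates, and nuclei stained with an antibody against cleaved PARP were counted against all DNA-stained nuclei to give the apoptosis fraction. Screening doses were chosen to leave most cells alive, and resting and induced cleaved-PARP levels differ strongly between cell lines.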

tested on: RPMI7951; experiment: cleaved PARP positive nuclei fraction relative to DMSO control; melanoma cells; higher = more apoptosis; settings: library dose: low library concentration; 72 h

Structure (SMILES)	cleaved PARP positive nuclei fraction
CO[C@H]1C[C@@H]2CC[C@@H](C)[C@@](O)(O2)C(=O)C(=O)N2CCCC[C@H]2C(=O)O[C@H]([C@H](C)C[C@@H]2CC[C@@H](OCCO)[C@H](OC)C2)CC(=O)[C@H](C)/C=C(\C)[C@@H](O)[C@@H](OC)C(=O)[C@H](C)C[C@H](C)/C=C/C=C/C=C/1C [everolimus] + c1cc(-c2cnn3cc(-c4ccc(OCCN5CCCCC5)cc4)cnc23)ccn1 [Dorsomorphin] (first compound 0.02 µM, partner dose 0.4 µM)	33.7%
Cn1c(=O)n(-c2ccc(C(C)(C)C#N)cc2)c2c3cc(-c4cnc5ccccc5c4)ccc3ncc21 + CO[C@H]1C[C@@H]2CC[C@@H](C)[C@@](O)(O2)C(=O)C(=O)N2CCCC[C@H]2C(=O)O[C@H]([C@H](C)C[C@@H]2CC[C@@H](OCCO)[C@H](OC)C2)CC(=O)[C@H](C)/C=C(\C)[C@@H](O)[C@@H](OC)C(=O)[C@H](C)C[C@H](C)/C=C/C=C/C=C/1C [everolimus] (first compound 0.004 µM, partner dose 0.02 µM)	193%
C[C@@H](Oc1cc(-c2cnn(C3CCNCC3)c2)cnc1N)c1c(Cl)ccc(F)c1Cl [Crizotinib] + CNC(=O)c1cc(Oc2ccc(NC(=O)Nc3ccc(Cl)c(C(F)(F)F)c3)cc2)ccn1 [sorafenib] (first compound 0.2 µM, partner dose 0.4 µM)	139%
CO[C@H]1C[C@@H]2CC[C@@H](C)[C@@](O)(O2)C(=O)C(=O)N2CCCC[C@H]2C(=O)O[C@H]([C@H](C)C[C@@H]2CC[C@@H](OCCO)[C@H](OC)C2)CC(=O)[C@H](C)/C=C(\C)[C@@H](O)[C@@H](OC)C(=O)[C@H](C)C[C@H](C)/C=C/C=C/C=C/1C [everolimus] + O=C(Nc1cccc(Cl)c1)Nc1ncc(CCNc2ncnc3ccsc23)s1 [SNS314] (first compound 0.02 µM, partner dose 0.0008 µM)	87.5%
CO[C@H]1C[C@@H]2CC[C@@H](C)[C@@](O)(O2)C(=O)C(=O)N2CCCC[C@H]2C(=O)O[C@H]([C@H](C)C[C@@H]2CC[C@@H](OCCO)[C@H](OC)C2)CC(=O)[C@H](C)/C=C(\C)[C@@H](O)[C@@H](OC)C(=O)[C@H](C)C[C@H](C)/C=C/C=C/C=C/1C [everolimus] + Oc1nc(-c2ccc(C(F)(F)F)cc2)nc2c1CSCC2 [XAV939] (first compound 0.02 µM, partner dose 2 µM)	116%
CO[C@H]1C[C@@H]2CC[C@@H](C)[C@@](O)(O2)C(=O)C(=O)N2CCCC[C@H]2C(=O)O[C@H]([C@H](C)C[C@@H]2CC[C@@H](OCCO)[C@H](OC)C2)CC(=O)[C@H](C)/C=C(\C)[C@@H](O)[C@@H](OC)C(=O)[C@H](C)C[C@H](C)/C=C/C=C/C=C/1C [everolimus] + Cc1nc(Nc2ncc(C(=O)Nc3c(C)cccc3Cl)s2)cc(N2CCN(CCO)CC2)n1 [dasatanib] (first compound 0.02 µM, partner dose 0.004 µM)	152%
CO[C@H]1C[C@@H]2CC[C@@H](C)[C@@](O)(O2)C(=O)C(=O)N2CCCC[C@H]2C(=O)O[C@H]([C@H](C)C[C@@H]2CC[C@@H](OCCO)[C@H](OC)C2)CC(=O)[C@H](C)/C=C(\C)[C@@H](O)[C@@H](OC)C(=O)[C@H](C)C[C@H](C)/C=C/C=C/C=C/1C [everolimus] + CC1(C)NC(=O)N(c2ccc([N+](=O)[O-])c(C(F)(F)F)c2)C1=O [nilutamide] (first compound 0.02 µM, partner dose 1 µM)	34%
CO[C@H]1C[C@@H]2CC[C@@H](C)[C@@](O)(O2)C(=O)C(=O)N2CCCC[C@H]2C(=O)O[C@H]([C@H](C)C[C@@H]2CC[C@@H](OCCO)[C@H](OC)C2)CC(=O)[C@H](C)/C=C(\C)[C@@H](O)[C@@H](OC)C(=O)[C@H](C)C[C@H](C)/C=C/C=C/C=C/1C [everolimus] + Nc1cccc2c1CN(C1CCC(=O)NC1=O)C2=O [lenalidomide] (first compound 0.02 µM, partner dose 1 µM)	201%
CO[C@H]1C[C@@H]2CC[C@@H](C)[C@@](O)(O2)C(=O)C(=O)N2CCCC[C@H]2C(=O)O[C@H]([C@H](C)C[C@@H]2CC[C@@H](OCCO)[C@H](OC)C2)CC(=O)[C@H](C)/C=C(\C)[C@@H](O)[C@@H](OC)C(=O)[C@H](C)C[C@H](C)/C=C/C=C/C=C/1C [everolimus] + Nc1nc(F)nc2c1ncn2[C@@H]1O[C@H](CO)[C@@H](O)[C@@H]1O [fludarabine] (first compound 0.02 µM, partner dose 0.2 µM)	94.1%
